Results deposited as PubChem BioAssay AID1224826 (NIAID, 2016)
Assay: 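Genes that change LPS-induced Tnf promoter activity in mouse macrophages when knocked down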 (primary screen). System: RAW264.7 G9 macrophages from mouse bearing reporters for p65 (GFP) and the Tnf promoter (mCherry). Knock-down reagent: siRNA pool against mouse genes, 100 nM. Duration: 16 h of LPS stimulation, after 2 days of siRNA transfection. Treatment: bacterial lipopolysaccharide (Salmonella minnesota R595), 10 ng/ml. Measured: 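Nuclear mCherry signal of the Tnf promoter reporter measured by imaging after background removal, scaled to each plate median and turned into robust z-scores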. Reading the numbers: Tnf reporter robust z-score: higher = stronger Tnf promoter reporter signal after LPS; Tnf reporter intensity: higher = stronger Tnf promoter reporter signal. Call rule: 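Called active when robust z-score is at most -1.3, matching the median of the Tlr4 knock-down control, or over 3; control wells and wells with under 50 cells never active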. Meaning of the calls: active = Tnf reporter clearly lowered or raised; inactive = no clear change in Tnf reporter.
The deposit covers about 17,000 reagents; this is an unselected part. Of all reagents, about 1,110 (6.6%) got an active call. 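Active means lowered or raised reporter signal; replicate intensities are raw and not normalised per plate.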 The numbers tell different reagents against one gene apart.

gene symbol | reagent | Tnf reporter robust z-score | fewer than 50 cells in well | Tnf reporter intensity, replicate 1 | Tnf reporter intensity, replicate 2 | Call
Gjb3 (gap junction protein, beta 3) | 1 | -0.51 | enough cells in well | 236 | 173 | inactive
Snx10 (sorting nexin 10) | 1 | -1.12 | enough cells in well | 69.1 | 41.9 | inactive
Psd2 (pleckstrin and Sec7 domain containing 2) | 1 | – | fewer than 50 cells per well; well left out of calls | 63.5 | 100 | inactive
Cyc1 (cytochrome c-1) | 1 | -0.26 | enough cells in well | 196 | 204 | inactive
Txndc5 (thioredoxin domain containing 5) | 1 | 0.75 | enough cells in well | 292 | 283 | inactive
Slc6a15 | 1 | 0.09 | enough cells in well | 226 | 153 | inactive
Slc6a15 | 2 | – | fewer than 50 cells per well; well left out of calls | 55.3 | 32.5 | inactive
Gvin1 (GTPase, very large interferon inducible 1) | 1 | 0.56 | enough cells in well | 236 | 201 | inactive
Fabp6 (fatty acid binding protein 6) | 1 | 3.58 | enough cells in well | 515 | 498 | active
Tmcc2 (transmembrane and coiled-coil domains 2) | 1 | 3.48 | enough cells in well | 355 | 187 | active
Mrgprb8 (MAS-related GPR, member B8) | 1 | 0.25 | enough cells in well | 276 | 98.6 | inactive
Vrk2 (vaccinia related kinase 2) | 1 | -0.33 | enough cells in well | 144 | 127 | inactive
Pp2d1 (protein phosphatase 2C-like domain containing 1) | 1 | – | fewer than 50 cells per well; well left out of calls | 160 | 114 | inactive
Apoo (apolipoprotein O) | 1 | 1.61 | enough cells in well | 341 | 136 | inactive
Cx3cr1 (C-X3-C motif chemokine receptor 1) | 1 | 0.56 | enough cells in well | 218 | 418 | inactive
Hbb-b1 (hemoglobin, beta adult major chain) | 1 | 1.71 | enough cells in well | 344 | 288 | inactive
Grp (gastrin releasing peptide) | 1 | 2.23 | enough cells in well | 443 | 418 | inactive
Dusp15 (dual specificity phosphatase-like 15) | 1 | -0.83 | enough cells in well | 174 | 140 | inactive
Stat3 (signal transducer and activator of transcription 3) | 1 | 0.49 | enough cells in well | 350 | 229 | inactive
Abhd1 (abhydrolase domain containing 1) | 1 | 0.58 | enough cells in well | 239 | 231 | inactive
Itih2 (inter-alpha trypsin inhibitor, heavy chain 2) | 1 | -1.11 | enough cells in well | 130 | 75.7 | inactive
Zkscan8 (zinc finger with KRAB and SCAN domains 8) | 1 | -0.77 | enough cells in well | 97.7 | 86.2 | inactive
Gphb5 (glycoprotein hormone beta 5) | 1 | – | fewer than 50 cells per well; well left out of calls | 99.9 | 42 | inactive
Or1j20 (olfactory receptor family 1 subfamily J member 20) | 1 | 0.96 | enough cells in well | 248 | 153 | inactive
Mtch2 | 1 | -0.19 | enough cells in well | 201 | 106 | inactive
Clic5 (chloride intracellular channel 5) | 1 | 0.68 | enough cells in well | 299 | 259 | inactive
Parp4 (poly (ADP-ribose) polymerase family, member 4) | 1 | 1.15 | enough cells in well | 298 | 310 | inactive
Whr1 (winged helix repair factor 1) | 1 | 3.53 | enough cells in well | 377 | 185 | active
Ooep (oocyte expressed protein) | 1 | -0.55 | enough cells in well | 183 | 63.6 | inactive
A130010J15Rik (RIKEN cDNA A130010J15 gene) | 1 | 1.36 | enough cells in well | 273 | 198 | inactive
Igfbpl1 (insulin-like growth factor binding protein-like 1) | 1 | -0.55 | enough cells in well | 164 | 84.7 | inactive
Phf2 (PHD finger protein 2) | 1 | -0.58 | enough cells in well | 217 | 138 | inactive
Sart1 (squamous cell carcinoma antigen recognized by T cells 1) | 1 | -1.18 | enough cells in well | 172 | 132 | inactive
Cftr (CF transmembrane conductance regulator) | 1 | -0.84 | enough cells in well | 189 | 138 | inactive
Hax1 (HCLS1 associated X-1) | 1 | -0.26 | enough cells in well | 233 | 115 | inactive
Poldip3 (polymerase (DNA-directed), delta interacting protein 3) | 1 | 0.22 | enough cells in well | 167 | 111 | inactive
Hrk | 1 | -0.57 | enough cells in well | 111 | 140 | inactive
Ppp1r14bl (protein phosphatase 1, regulatory inhibitor subunit 14B like) | 1 | – | fewer than 50 cells per well; well left out of calls | 86.6 | 29.2 | inactive
Rangap1 (RAN GTPase activating protein 1) | 1 | 0.45 | enough cells in well | 369 | 228 | inactive
Ccdc88c (coiled-coil domain containing 88C) | 1 | 1.24 | enough cells in well | 295 | 131 | inactive
Paip2b (poly(A) binding protein interacting protein 2B) | 1 | -0.26 | enough cells in well | 178 | 201 | inactive
Ssh3 (slingshot protein phosphatase 3) | 1 | -0.06 | enough cells in well | 288 | 198 | inactive
Cyp2a12 (cytochrome P450, family 2, subfamily a, polypeptide 12) | 1 | 1.39 | enough cells in well | 312 | 216 | inactive
Pimreg (PICALM interacting mitotic regulator) | 1 | 0.32 | enough cells in well | 175 | 174 | inactive
Tjp1 (tight junction protein 1) | 1 | -0.27 | enough cells in well | 233 | 109 | inactive
C87436 (expressed sequence C87436) | 1 | 0.03 | enough cells in well | 146 | 205 | inactive
Tktl1 (transketolase-like 1) | 1 | 0.5 | enough cells in well | 193 | 207 | inactive
Vwa1 (von Willebrand factor A domain containing 1) | 1 | 2.07 | enough cells in well | 377 | 115 | inactive
Acsl4 (acyl-CoA synthetase long-chain family member 4) | 1 | -0.45 | enough cells in well | 106 | 186 | inactive
Cep250 (centrosomal protein 250) | 1 | -0.99 | enough cells in well | 169 | 134 | inactive
Or2f1b (olfactory receptor family 2 subfamily F member 1B) | 1 | -1.63 | enough cells in well | 87.2 | 31.4 | active
Hmgcl (3-hydroxy-3-methylglutaryl-Coenzyme A lyase) | 1 | -0.37 | enough cells in well | 182 | 187 | inactive
Wiz (widely-interspaced zinc finger motifs) | 1 | -0.9 | enough cells in well | 67.5 | 87.3 | inactive
Krt8 (keratin 8) | 1 | -1.22 | enough cells in well | 153 | 79.5 | inactive
Coro2a (coronin, actin binding protein 2A) | 1 | -0.38 | enough cells in well | 171 | 211 | inactive
Fbxo44 (F-box protein 44) | 1 | 2.26 | enough cells in well | 289 | 339 | inactive
Txnip (thioredoxin interacting protein) | 1 | – | fewer than 50 cells per well; well left out of calls | 142 | 61.5 | inactive
Med21 (mediator complex subunit 21) | 1 | -1.84 | enough cells in well | 117 | 71.7 | active

A portion taken from the entries so far, for reference:
gene symbol | reagent | Tnf reporter robust z-score | fewer than 50 cells in well | Tnf reporter intensity, replicate 1 | Tnf reporter intensity, replicate 2 | Call
Paip2b (poly(A) binding protein interacting protein 2B) | 1 | -0.26 | enough cells in well | 178 | 201 | inactive
Ssh3 (slingshot protein phosphatase 3) | 1 | -0.06 | enough cells in well | 288 | 198 | inactive
Cyp2a12 (cytochrome P450, family 2, subfamily a, polypeptide 12) | 1 | 1.39 | enough cells in well | 312 | 216 | inactive
Pimreg (PICALM interacting mitotic regulator) | 1 | 0.32 | enough cells in well | 175 | 174 | inactive
